Results deposited as PubChem BioAssay AID504804 (Drosophila RNAi Screening Center, 2011)

Aim: 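dsRNAs that improve Kc cell survival under doxorubicin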 (primary screen)
Cell system: Drosophila Kc cells
Reagents: long dsRNA against Drosophila genes, 0.5 µg dsRNA per well
Timing: 96 h (48 h knock-down, then 48 h drug)
Challenge: doxorubicin 5 µg/ml for 48 h, added 48 h after dsRNA
Measured: 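Viability measured as cellular ATP by luminescence after 48 h knock-down then 48 h doxorubicin at 5 µg/ml; unnormalised plate counts for each replicate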
Scale: raw ATP luminescence: higher = more viable cells, protection from doxorubicin
Rule for the call: 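z-score of 2 or more over plate mean in both duplicates, retained only when retests and separate dsRNAs confirm the protection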
The screen tested about 19,000 reagents; this is an unselected part of those that have a named target and a result. Over the whole deposit, 47 (0.25%) were called active. 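Signals are raw, not normalised; exact z-scores behind calls not deposited; actives needed confirmation, so some wells reaching 2 SD are inactive.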 Entries without a mark were called inactive. Reagents against one gene are numbered here.

Depletion of CG11381 came out at: raw ATP luminescence, replicate 1 = 29690; raw ATP luminescence, replicate 2 = 21550. Knock-down of MICU1 gave: raw ATP luminescence, replicate 1 = 1.13e5; raw ATP luminescence, replicate 2 = 73053. CG15023 scored raw ATP luminescence, replicate 1 = 69957; raw ATP luminescence, replicate 2 = 65733. Silencing of Reph resulted in: raw ATP luminescence, replicate 1 = 1.12e5; raw ATP luminescence, replicate 2 = 84247. With knock-down of Fs(2)Ket, the record shows raw ATP luminescence, replicate 1 = 38943; raw ATP luminescence, replicate 2 = 45830. CG15563 scored raw ATP luminescence, replicate 1 = 70630; raw ATP luminescence, replicate 2 = 56030.

mats #1 showed raw ATP luminescence, replicate 1 = 2.44e5; raw ATP luminescence, replicate 2 = 2.29e5. With knock-down of mats #2, the screen gave raw ATP luminescence, replicate 1 = 48957; raw ATP luminescence, replicate 2 = 47987. CG31495 showed raw ATP luminescence, replicate 1 = 88060; raw ATP luminescence, replicate 2 = 71400. With knock-down of Cht12, the screen gave raw ATP luminescence, replicate 1 = 81153; raw ATP luminescence, replicate 2 = 73093. For CG31759, the values are raw ATP luminescence, replicate 1 = 2.32e5; raw ATP luminescence, replicate 2 = 2.62e5. After knock-down of mbf1, the record shows raw ATP luminescence, replicate 1 = 28300; raw ATP luminescence, replicate 2 = 25317.

CG16743 showed raw ATP luminescence, replicate 1 = 35770; raw ATP luminescence, replicate 2 = 64550. Knock-down of Ccp84Ab resulted in: raw ATP luminescence, replicate 1 = 55057; raw ATP luminescence, replicate 2 = 54733. After knock-down of CG1307 the results were raw ATP luminescence, replicate 1 = 52153; raw ATP luminescence, replicate 2 = 19977. Knock-down of SoxN came out at: raw ATP luminescence, replicate 1 = 43027; raw ATP luminescence, replicate 2 = 65897. With knock-down of CRIF, the screen gave raw ATP luminescence, replicate 1 = 65103; raw ATP luminescence, replicate 2 = 54757. For hyd, the entry reads raw ATP luminescence, replicate 1 = 48800; raw ATP luminescence, replicate 2 = 53690.

CG7963 gave raw ATP luminescence, replicate 1 = 45087; raw ATP luminescence, replicate 2 = 54340.

Looked up above.
Result of CG16743 under “raw ATP luminescence, replicate 2”: 64550
Result for CRIF under “raw ATP luminescence, replicate 1”: 65103
Under “raw ATP luminescence, replicate 1”, CG31759 has 2.32e5
